Test results reported in paper PMC4423239.
Positions count from the first letter of the chain named. For some of these results: No signal at the amounts used counts as a negative. For some of these results: Protein sequences can lack the tags named with them. For some of these results: The exact form of at least one protein or probe is not confirmed. For some of these results: A weaker result is weaker than the reference pair of the same experiment. For some of these results: At least one verdict was read from the data and is not stated in words by the source.

Tests used:
[1] = molecular target: T1, mC5a (mouse) (UniProt P06684); test: SPR; settings: all L-nucleotides (Spiegelmer), L-RNA with L-deoxy at dU7, dG14, dA15, dU28, dU30, dC38, SPR (Biacore 2000, C5a immobilized on CM5): 20 mM Tris pH 7.4, 150 mM NaCl, 5 mM KCl, 1 mM MgCl2, 1 mM CaCl2, 37 C, recombinant protein, protein details: Trx-His6-TEV tag, removed with TEV, synthetic backbone
T1 sequence (looked up, limits assumed): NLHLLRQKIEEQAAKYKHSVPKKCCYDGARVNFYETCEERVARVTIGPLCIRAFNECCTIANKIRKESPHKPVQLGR

[2] = molecular target: T2, hC5a WT (R&D Systems) (human) (UniProt P01031); test: SPR; settings: all L-nucleotides (Spiegelmer); L-RNA with L-deoxy at dU7, dG14, dA15, dU28, dU30, dC38; SPR (Biacore 2000, C5a immobilized on CM5): 20 mM Tris pH 7.4, 150 mM NaCl, 5 mM KCl, 1 mM MgCl2, 1 mM CaCl2, 37 C; commercial protein; synthetic backbone
T2 sequence (looked up, limits assumed): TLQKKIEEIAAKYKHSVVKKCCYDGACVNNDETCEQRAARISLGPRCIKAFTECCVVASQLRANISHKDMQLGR

[3] = molecular target: T3, hC5a(Cys704Arg) (human) (UniProt P01031); test: SPR; settings: all L-nucleotides (Spiegelmer); L-RNA with L-deoxy at dU7, dG14, dA15, dU28, dU30, dC38; SPR (Biacore 2000, C5a immobilized on CM5): 20 mM Tris pH 7.4, 150 mM NaCl, 5 mM KCl, 1 mM MgCl2, 1 mM CaCl2, 37 C; recombinant protein; protein details: Trx-His6-TEV tag, removed with TEV; synthetic backbone
T3 sequence (looked up, limits assumed): T2 sequence (looked up, limits assumed) with C27R

[4] = molecular target: T1, mC5a (mouse); test: crystal structure (1.8 A); settings: Ca2+ (3 per aptamer), Mg2+ (1 per aptamer); all L-nucleotides (Spiegelmer); L-RNA with L-deoxy at dU7, dG14, dA15, dU28, dU30, dC38; recombinant protein; protein details: Trx-His6-TEV tag, removed with TEV; synthetic backbone
[5] = molecular target: T4, mC5a-desArg (mouse) (UniProt P06684); test: crystal structure (2.0 A); settings: Ca2+, Mg2+; all L-nucleotides (Spiegelmer); L-RNA with L-deoxy at dU7, dG14, dA15, dU28, dU30, dC38; recombinant protein; protein details: Trx-His6-TEV tag, removed with TEV; synthetic backbone
T4 sequence (looked up, limits assumed): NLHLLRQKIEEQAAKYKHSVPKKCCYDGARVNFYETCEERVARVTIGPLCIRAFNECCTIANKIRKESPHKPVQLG

[6] = molecular target: hC5a Val705 mutant(s) (human) (UniProt P01031); test: SPR competition; settings: no reduced affinity; all L-nucleotides (Spiegelmer); L-RNA with L-deoxy at dU7, dG14, dA15, dU28, dU30, dC38; recombinant protein; protein details: Trx-His6-TEV tag, removed with TEV; synthetic backbone
[7] = molecular target: T5, hC5a Ser693 mutant(s) S693A,C704R (human) (UniProt P01031); test: SPR competition; settings: Ser693 = mouse Ser697; all L-nucleotides (Spiegelmer); L-RNA with L-deoxy at dU7, dG14, dA15, dU28, dU30, dC38; recombinant protein; protein details: Trx-His6-TEV tag, removed with TEV; synthetic backbone
T5 sequence (looked up, limits assumed): T2 sequence (looked up, limits assumed) with S16A, C27R

[8] = molecular target: T6, mC5a Ser697 mutant(s) S697A (mouse) (UniProt P06684); test: SPR competition; settings: Ser697 crucial for binding; all L-nucleotides (Spiegelmer); L-RNA with L-deoxy at dU7, dG14, dA15, dU28, dU30, dC38; recombinant protein; protein details: Trx-His6-TEV tag, removed with TEV; synthetic backbone
T6 sequence (looked up, limits assumed): T1 sequence (looked up, limits assumed) with S19A

[9] = tested on: mC5a Val709 mutant(s) V709A (mouse); test: SPR competition; settings: no reduced affinity; all L-nucleotides (Spiegelmer); L-RNA with L-deoxy at dU7, dG14, dA15, dU28, dU30, dC38; recombinant protein; protein details: Trx-His6-TEV tag, removed with TEV; synthetic backbone

Sequence: GCGAUGUGGUGGUGAAGGGUUGUUGGGUGUCGACGCACGC [NOX-D20]
- binding result ([1]; 1 mM Ca2+, 1 mM Mg2+): binds
- binding result ([1]; >2 mM EDTA): no binding
- binding result ([1]; no Ca2+ in dissociation buffer (complex quickly dissociates)): binds more weakly
- binding result ([1]; no K+ (equal binding)): binds
- binding result ([1]; no K+, with Li+ (equal binding)): binds
- binding result [2]: binds
- binding result [3]: binds
- binding result [4]: binds
- binding result [5]: binds
- binding result [6]: binds
- binding result [7]: binds more weakly
- binding result [8]: binds more weakly
- binding result [9]: binds
